# According to US20230127087:
# The chains behind the UniProt entries cited, without tags or fusion partners. Residues count along the entry.
# UniProt P51654, 25-554: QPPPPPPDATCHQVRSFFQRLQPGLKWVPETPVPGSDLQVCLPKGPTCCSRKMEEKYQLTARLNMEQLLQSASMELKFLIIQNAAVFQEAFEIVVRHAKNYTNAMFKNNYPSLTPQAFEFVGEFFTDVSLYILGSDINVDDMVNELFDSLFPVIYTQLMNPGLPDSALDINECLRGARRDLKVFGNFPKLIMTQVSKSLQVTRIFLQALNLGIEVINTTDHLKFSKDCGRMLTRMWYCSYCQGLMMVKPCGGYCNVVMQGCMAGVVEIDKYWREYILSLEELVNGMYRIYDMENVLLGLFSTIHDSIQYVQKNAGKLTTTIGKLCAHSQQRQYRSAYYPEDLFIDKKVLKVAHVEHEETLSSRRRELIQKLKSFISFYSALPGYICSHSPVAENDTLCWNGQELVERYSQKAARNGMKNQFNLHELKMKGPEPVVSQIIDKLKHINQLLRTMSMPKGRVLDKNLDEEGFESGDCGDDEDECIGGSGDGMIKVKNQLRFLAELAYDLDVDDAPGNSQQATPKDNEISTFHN
# For part of these data: A weaker result is weaker than the reference pair of the same experiment. For part of these data: Where cells or extracts were used, other partners may take part. For part of these data: For at least one entry, the source does not settle the construct or the ends of the probe. For part of these data: Negatives hold for the conditions tested.
# Legend:
# [1] = system: Glypican-3 (GPC3) on hepatoma cells (HepG2, Hep3B, Huh-7); test: flow cytometry; conditions: n = BzdU, protein on the cell surface, single-stranded DNA
# [2] = system: Glypican-3 (GPC3) on hepatoma cells (HepG2, Hep3B, Huh-7); test: activity in cells; conditions: n = BzdU, single-stranded DNA, variant of 12-12, dose not given here
# [3] = system: A431 cells (low GPC3 expression); test: activity in cells; conditions: n = BzdU, 2'-F, no internalization in A431, protein on the cell surface, single-stranded DNA, variant of 12-12, dose not given here
# Glypican-3 (GPC3) [4] = biological target: Glypican-3 (GPC3) (UniProt P51654); test: filter binding; conditions: n = BzdU, S = gemcitabine [BzdU (T) at 7,11,15,16,20,21,23,25,29,30,34,37, purified recombinant protein, single-stranded DNA, letters built from the parent sequence and the stated change, variant of 2428-12-10 (12-10)
# Glypican-3 (GPC3) [5] = biological target: Glypican-3 (GPC3) (UniProt P51654); test: MST; conditions: n = BzdU, S = gemcitabine, 2'-F, 2'-OMe, 2'-OMe: 1,3,28,34, 3' idT left out], purified recombinant protein, label: 5' Cy5, single-stranded DNA, letters built from the parent sequence and the stated change, variant of Combi 4
sequence,measurement,setting,value
GTGAATGCCTTGAATTATCTCCCTTCAGTCATCAC [12-12 G(7)],binding result,"[1]; S = gemcitabine, 3' idT [BzdU (T): 2,6,10,11,15,16,18,20,24,25,29,32, gemcitabine (C): 8,9,19,21,22,23,35 (9 and 19 replace parent G), 3' idT left out], cell binding decreases with gemcitabine number, label: 5' Cy5, letters built from the parent sequence and the stated change, variant of 12-12",binds more weakly
GTGAATGCGTTGAATTATGTCCCTTCAGTCATCAC [Combi 4],functional effect of the aptamer,"[2]; 2'-F, 2'-OMe, Y = Nap-dU as printed GMenGMeAFAFnGCGnnGFAFAFnnAFnGYCFCFCFnnCAGMenCAnCAMCF, 3' idT [BzdU (T): 2,6,10,11,15,16,18,24,25,29,32, Nap-dU (T): 20, 2'-OMe: 1,3,28,34, 2'-F: 4,5,12,13,14,17,21,22,23,35, 3' idT left out], excellent Hep3B internalization, protein on the cell surface, letters built from the parent sequence and the stated change",active
GTGAATGCGTTGAATTATGTCCCTTCAGTCATCAC [12-12],binding result,"[1]; 3' idT, Huh-7 cells, 25 nM aptamer, KRPH buffer, 4 C, best of 12-10 truncations, label: 5' Cy5 (cell assays), variant of 2428-12-10 (12-10)",binds
GTGAATGCGTTGAATTATTCCCTTCAGTCATCAC [Combi 8],functional effect of the aptamer,"[3]; 2'-OMe, W = C3 linker as printed GMenGMeAFAFnGCGnnGFAFAMennAMenWnCFCFCFnnCAGMenCAnCFAMeCF, 3' idT [C3 linker (W) between 18 and 19 left out, BzdU (T): 2,6,10,11,15,16,18,19,23,24,28,31, 2'-OMe: 1,3,14,17,27,33, 2'-F: 4,5,12,13,20,21,22,32,34, 3' idT left out], letters built from the parent sequence and the stated change",not active
same,functional effect of the aptamer,"[2]; 2'-F, 2'-OMe, W = C3 linker as printed GMenGMeAFAFnGCGnnGFAFAMennAMenWnCFCFCFnnCAGMenCAnCFAMeCF, 3' idT [C3 linker (W) between 18 and 19 left out, BzdU (T): 2,6,10,11,15,16,18,19,23,24,28,31, 2'-OMe: 1,3,14,17,27,33, 2'-F: 4,5,12,13,20,21,22,32,34, 3' idT left out], highest internalization in HepG2 and Hep3B, protein on the cell surface, letters built from the parent sequence and the stated change",active
CCGAAGTGAATGCGTTGAATTATGTCCCTTCAGTCATCAC [12-10 G(2)5'],binding result,"Glypican-3 (GPC3) [4]; gemcitabine (C) at 1,2], gemcitabine at 5' end affects binding",binds more weakly
GTGAATGCGTTGAATTATGTCCCTTCAGTCATCAC [Combi 4 G(3)],binding result,"[1]; S = gemcitabine, 2'-F, 2'-OMe, Y = Nap-dU as printed GMenGMeAFAFnGCGnnGFAFAFnnAFnGYSSSnnCAGMnCAnCFAMCF, 3' idT [BzdU (T): 2,6,10,11,15,16,18,24,25,29,32, Nap-dU (T): 20, gemcitabine (C): 21,22,23, 2'-OMe: 1,3,28,34, 2'-F: 4,5,12,13,14,17,33,35, 3' idT left out], better cell binding than G(5), label: 5' Cy5, letters built from the parent sequence and the stated change, variant of Combi 4",binds
same,binding result,"Glypican-3 (GPC3) [5]; Y = Nap-dU as printed GMenGMeAFAFnGCGnnGFAFAFnnAFnGYSSSnnCAGMnCAnCFAMCF, 3' idT [BzdU (T): 2,6,10,11,15,16,18,24,25,29,32, Nap-dU (T): 20, gemcitabine (C): 21,22,23, 2'-F: 4,5,12,13,14,17,33,35, Kd similar to 12-12, SB18T0.05",binds
GTGAATGCGTTGAATTATGTCCCTTCAGTCATCAC [Combi 6],functional effect of the aptamer,"[3]; 2'-OMe, Y = Nap-dU as printed GMenGMeAFAFnGCGnnGFAFAMennAMenGYCFCFCFnnCAGMenCAnCFAMeCF, 3' idT [BzdU (T): 2,6,10,11,15,16,18,24,25,29,32, Nap-dU (T): 20, 2'-OMe: 1,3,14,17,28,34, 2'-F: 4,5,12,13,21,22,23,33,35, 3' idT left out], letters built from the parent sequence and the stated change",not active
same,functional effect of the aptamer,"[2]; 2'-F, 2'-OMe, Y = Nap-dU as printed GMenGMeAFAFnGCGnnGFAFAMennAMenGYCFCFCFnnCAGMenCAnCFAMeCF, 3' idT [BzdU (T): 2,6,10,11,15,16,18,24,25,29,32, Nap-dU (T): 20, 2'-OMe: 1,3,14,17,28,34, 2'-F: 4,5,12,13,21,22,23,33,35, 3' idT left out], internalization in HepG2 and Hep3B, protein on the cell surface, letters built from the parent sequence and the stated change",active
GTGAATGCGTTGAATTATGTCCCTTCAGTCATCAC [12-12 G(5)],binding result,"[1]; S = gemcitabine, 3' idT [BzdU (T): 2,6,10,11,15,16,18,20,24,25,29,32, gemcitabine (C): 8,21,22,23,35, 3' idT left out], cell binding decreases with gemcitabine number, label: 5' Cy5, letters built from the parent sequence and the stated change, variant of 12-12",binds more weakly
GTGAATGCGTTGAATTATGTCCCTTCAGTCATCAC [12-12 G(3)],binding result,"[1]; S = gemcitabine, 3' idT [BzdU (T) at 2,6,10,11,15,16,18,20,24,25,29,32, gemcitabine (C) at 21,22,23, 3' idT left out (after 35)], best cell binding among gemcitabine-bound 12-12, label: 5' Cy5, letters built from the parent sequence and the stated change, variant of 12-12",binds
same,functional effect of the aptamer,"[2]; S = gemcitabine, 3' idT [BzdU (T) at 2,6,10,11,15,16,18,20,24,25,29,32, gemcitabine (C) at 21,22,23, 3' idT left out (after 35)], HepG2 killing by gemcitabine aptamer, none on A431, protein on the cell surface, letters built from the parent sequence and the stated change",active
GTGAATGCGTTGAATTATTCCCTTCAGTCATCAC [Combi 5],binding result,"[1]; 2'-F, 2'-OMe, W = C3 linker, Y = Nap-dU as printed GMenGMeAFAFnGCGnnGFAFAMennAMenWYCFCFCFnnCAGMenCAnCFAMeCF, 3' idT [C3 linker (W) between 18 and 19 left out, BzdU (T): 2,6,10,11,15,16,18,23,24,28,31, Nap-dU (T): 19, 2'-OMe: 1,3,14,17,27,33, 2'-F: 4,5,12,13,20,21,22,32,34, 3' idT left out], HepG2, binding most similar to 12-12, highest Hep3B internalization of combi 1-5, label: 5' Cy5, letters built from the parent sequence and the stated change, variant of 12-12",binds
GGGAAGTGAATGCGTTGAATTATGTCCCTTCAGTCATCAC [12-10 G(2)P],binding result,"Glypican-3 (GPC3) [4]; gemcitabine (C) at 35,38], gemcitabine at pair affects binding",binds more weakly
GTGAATGCGTTGAATTATGTCCCTTCAGTCATCAC [Combi 7],functional effect of the aptamer,"[3]; 2'-OMe as printed GMenGMeAFAmnGCGnnGFAFAMennAMenGnCCFCFnnCAGMenCAnCAMeCF, 3' idT",not active
same,functional effect of the aptamer,"[2]; 2'-F, 2'-OMe as printed GMenGMeAFAmnGCGnnGFAFAMennAMenGnCCFCFnnCAGMenCAnCAMeCF, 3' idT, internalization in HepG2 and Hep3B, protein on the cell surface",active
GTGAATGCGTTGAATTATGTCCCTTCAGTCATCAC [Combi 4 G(5)],binding result,"[1]; S = gemcitabine, 2'-F, 2'-OMe, Y = Nap-dU as printed GMenGMeAFAFnGCGnnGFAFAFnnAFnGYSSSnnCAGMenCAnSAMeS, 3' idT [BzdU (n=T): 2,6,10,11,15,16,18,24,25,29,32, Nap-dU (Y=T): 20, gemcitabine (S=C): 21,22,23,33,35, 2'-OMe: 1,3,28,34, 2'-F: 4,5,12,13,14,17, 3' idT left out], label: 5' Cy5, letters built from the parent sequence and the stated change, variant of Combi 4",binds more weakly
same,binding result,"Glypican-3 (GPC3) [5]; Y = Nap-dU as printed GMenGMeAFAFnGCGnnGFAFAFnnAFnGYSSSnnCAGMenCAnSAMeS, 3' idT [BzdU (n=T): 2,6,10,11,15,16,18,24,25,29,32, Nap-dU (Y=T): 20, gemcitabine (S=C): 21,22,23,33,35, 2'-F: 4,5,12,13,14,17, low binding with five gemcitabines",binds more weakly
GTGAATGCGTTGAATTATGTCCCTTCAGTCATCAC [Combi 10],functional effect of the aptamer,"[3]; 2'-OMe as printed GMenGMeAFAFnGCGnnGFAFAFnnAFnGnCFCFCFnnCAGMenCAnCFAMCE, 3' idT",not active
same,functional effect of the aptamer,"[2]; 2'-F, 2'-OMe as printed GMenGMeAFAFnGCGnnGFAFAFnnAFnGnCFCFCFnnCAGMenCAnCFAMCE, 3' idT, internalization in HepG2 and Hep3B, protein on the cell …",active
